Measurements: PubChem BioAssay AID1794845 (National Center for Advancing Translational Sciences (NCATS), 2023)
Fewer than 10 of roughly 6,900 compounds were called active. Calls come from the whole dose curve; as a rule, active = well fitted curve in the direction sought with a large enough effect; inconclusive = small, poorly fitted or top-dose-only effect, or another doubt; inactive = no such curve, though single readings can be large or run the other way. The list shows a part of the results.

Sequences of proteins named here, by UniProt entry; tags and fusion partners are left off. A change or cut given only in a name is not applied to a line headed by its entry.
UniProt C7C422: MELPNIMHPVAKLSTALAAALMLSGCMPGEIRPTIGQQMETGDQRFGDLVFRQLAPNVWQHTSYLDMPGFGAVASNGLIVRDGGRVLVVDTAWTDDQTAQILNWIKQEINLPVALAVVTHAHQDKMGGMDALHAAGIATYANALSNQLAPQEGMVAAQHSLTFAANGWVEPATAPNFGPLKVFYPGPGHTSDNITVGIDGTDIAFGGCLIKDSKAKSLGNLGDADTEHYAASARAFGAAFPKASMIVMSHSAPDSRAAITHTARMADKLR

What follows are compounds tested against Metallo-beta-lactamase type 2 (Klebsiella pneumoniae) (UniProt C7C422) (assay: qHTS to identify inhibitors of the New Delhi Metallo-beta-lactamase (NDM): primary screen against the NCATS Gemini Collection). Conditions: NDM-1 enzyme, meropenem hydrolysis, absorbance 300 nm; at 38.4 µM (top of the series) unless noted.
In short: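 Meropenem hydrolysis (50 uM final) by 2 nM NDM-1 read as 300 nm absorbance after 30 min, following >30 min compound–enzyme preincubation in HEPES pH 7.0 with 1 uM ZnSO4 and 0.01% Tween20.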
Note: % of control where 0% means no effect.

Activity % (negative = inhibition), inactive:
O=C(NCc1ccccc1)C1CCCN1c1nccc(Nc2ccccc2F)n1 (centres undefined) 35%
CC(C)c1noc([C@@H]2C[C@@H](O)CN2Cc2cc3ccccc3o2)n1 12.8% [at 57.5 µM]
O=C(NCCn1ccnc1-c1cc2n(n1)CCCNC2)c1ccncc1 23.6%
COCCn1c(C)cnc1CC1CCN(C(=O)c2c[nH]c3ccccc23)CC1 39%
CCOc1cc(=O)n2c(c1C(=O)Nc1cccc(C)c1)CCCC2 41.2%
CNC(=O)[C@@H](Cc1ccccc1)N1CCC[C@H]1C(=O)NCC1CC1 11.1% [at 57.5 µM]
C=CCNC(=O)N[C@H]1C[C@@H](C(=O)N[C@@H](CCS(C)(=O)=O)C(N)=O)N(C(=O)CSC)C1 -0.301%
COCCN1C[C@@H]2[C@H](c3ccccc31)[C@@H](CO)[C@@H](c1ccccc1)N2C(=O)COC(C)=O 4.01%
CN1CC2(CCN(C(=O)CCc3nc(-c4ccco4)no3)C2)OC1=O (centres undefined) 7.83%
CCCS(=O)(=O)N1CCc2nnc(C3CC3)n2CC1 7.88%
COCCN1CC2CN(C(=O)CCCc3ccccc3)CC(C1)O2 -0.476%
O=C1Cc2c(-c3ccccc3OCc3ccccc3)n[nH]c2CN1CC1CCOCC1 -7.73% [at 57.5 µM]
Cc1nn(C)c(C)c1S(=O)(=O)N1CCC2(CCC(=O)N(Cc3ccccc3)CC2)CC1 -1.31%
O=C(Nc1cccc(F)c1)[C@@H]1C[C@@H](c2cccc(C(F)(F)F)c2)N(CC2CCOCC2)C1 -1.03%
CC(=O)N1CCn2c(nnc2C2CCCN2Cc2ccc(F)cc2F)C1 (centres undefined) -1.98%
CCn1ncnc1C(C)NC1CCC2(CCNCC2)CC1 (centres undefined) 9.84%
Cc1cn2nc(C(=O)NC3CCCCCC3)cc2c(N2CCSCC2)n1 1.22%
COCc1cc(CNC(=O)CC(c2ccccc2)c2ccccc2Cl)[nH]n1 (centres undefined) -5.39%
O=C1NCCCCCN(C(=O)C2CCCCC2)[C@H]2CCCC[C@@H]12 -1.31%
O=C1NCCOCCN(C(=O)Cc2cccc(F)c2)[C@H]2CCC[C@@H]12 -0.244%
Cc1cnc(-c2ccccc2)n1C1CCCN(S(=O)(=O)c2ccccc2)C1 (centres undefined) 4.9%
Cc1cnccc1CN(C)Cc1cc2n(n1)CCNC2 2.08%
CCC1(C(=O)NC2CCCCC2)CCCCC(=O)N1 (centres undefined) 0.446%
O=C(c1cccc(OC2CN(C3CCCC3)C2)c1)N1CCCC1 4.99%
C/C=C/CN1C[C@@H](NC(=O)c2cccc(N(C)C)c2)C[C@H]1C(=O)NCC -0.496%
COC1=C(C(=O)OCc2ccccc2)N(c2c(C)cccc2C)[S+](=O)([O-])c2ccccc21 5.27%
CN1CCCC2(CCN(S(=O)(=O)c3ccc4[nH]c(=O)[nH]c4c3)C2)C1=O (centres undefined) 1.81%
O=C([C@@H]1C[C@H](Oc2ccccc2)CN1C(=O)C1CC1)N1CCCC1 1.16%
CCCNC(=O)N1CCC(Cc2ccc(CCNC(C)=O)cc2)CC1 1.09%
CC(C)CCN1CC2(CCCN(S(=O)(=O)N3CCOCC3)C2)CCC1=O (centres undefined) 1.08%
CC(=O)N[C@H](CC(C)C)c1nc(-c2ccc(C)nn2)no1 4.16%
CN(Cc1ccccc1)Cc1cc(CC2(NC3CCCCC3)COC2)no1 7.49% [at 57.5 µM]
O=C1NC(=NC2CCCC2)C2(CCN([S+](=O)([O-])c3cccc(C(F)(F)F)c3)C2)N1c1cccnc1 (centres undefined) -0.274%
CN1CCCC2(CCN(c3nc4c(cc3C(N)=O)CCC4)C2)C1=O (centres undefined) -0.0357%
Cc1cc(C)n(CCC(=O)N2CCC(Cc3nncn3-c3ccccc3)CC2)n1 -5.45%
O=C(NCc1cccc(F)c1)N1CCC(n2cnnc2C2CC2)C1 (centres undefined) -0.49%
O=[S+]([O-])(c1cccnc1)c1nnn2c1nc(NCc1ccncc1)c1ccccc12 0.326%
Cc1ccc(OCc2nc(C3CCCCN3C(=O)c3ccncc3)no2)cc1 (centres undefined) 0.791%
CC(=O)NCc1nnc2n1C(C(=O)Nc1cccc(Cl)c1)CC2 (centres undefined) -5.04%
C(=C\c1ccccc1)/CN1CCN(c2nccc(-c3cccnc3)n2)CC1 -4.13%
CC(C)[S+](=O)([O-])N1CCC2(CC1)CC(c1cccc(C(F)(F)F)c1)=NO2 -2.29%
Cn1cc(CN(Cc2c(C(=O)N3CCCC3)nc3sccn23)C2CC2)cn1 -9.07%
OC[C@@H]1O[C@H](CNC2CCOCC2)[C@H](N2CCCCC2)[C@@H]1O 1.3% [at 57.5 µM]
O=C(c1cccc2c1NCCC2)N1CCn2nc(C(O)C3CC3)cc2C1 (centres undefined) 2.7%
COc1ccc(CN2C(=O)[C@@H]3C[C@@H](O)CN3C3(CN(C)C3)C2=O)cc1 11.4% [at 57.5 µM]
COc1ccc(-c2ccc3ncn(C4CC4)c(=O)c3n2)cn1 18.2% [at 57.5 µM]
Cc1nc([C@@H]2CN(S(=O)(=O)c3ccc4c(c3)CCCC4)C[C@H]2C(N)=O)n[nH]1 0.242%
COc1ccccc1C(=O)N1CCCC(c2nnc3n2C(C(=O)O)CC3)C1 (centres undefined) 3.35%
O=C(NC1CC(=O)N(Cc2cccc(F)c2)C1)c1ccccc1-n1cccn1 (centres undefined) 5.36%
N#Cc1cccc(CN[C@H]2[C@H](O)[C@H](O)C[C@@H]2c2cccnc2)c1 -8.34% [at 57.5 µM]
COC[C@@H]1[C@H](NC(=O)c2csc(C)c2-c2ccccc2)[C@@H]2CCO[C@H]12 3.58%
COc1ccc(CNC(=O)[C@@H](C)C2CC[C@@]3(C)CC[C@H](NC(=O)COc4ccccc4)[C@@H](C)[C@@H]3[C@H]2O)cc1 (some centres undefined) 1.88%
CCC(=O)N1CCc2sc(C(=O)NCCCOC)cc2C1 6.65%
Cc1nn(CC(=O)N2CCCCCC2)c(=O)c2nc(C(C)C)sc12 12.4%
O=C(CCCn1cncn1)N1CCCC(CCc2ccccc2C(F)(F)F)C1 (centres undefined) 2.51%
O=C(NCC1CCN(c2cc(-c3ccccc3)[nH]n2)CC1)c1ccc2nc[nH]c2c1 0.427%
O=C1CC(c2cn[nH]c2C(=O)O)c2c(n[nH]c2-c2cccs2)N1 (centres undefined) 23.5%
Cc1cc(C)cc(NC(=S)N[C@H]2CO[C@H]3[C@@H]2OC[C@H]3OC(=O)NC2CCCCC2)c1 15.5% [at 57.5 µM]
Cn1cc(-c2cn(C)c(=O)n3cc(CNc4ccccc4)nc23)cn1 13.2% [at 57.5 µM]
CCCS(=O)(=O)N1C[C@@H](Oc2cccnc2)C[C@H]1C(N)=O -0.421%
C=CCOc1cccc(-c2nnc(CCC(=O)NC(C)CC)c(=O)[nH]2)c1 (centres undefined) 16.7%
c1cc2c(cc1-c1n[nH]c(C3CCOCC3)n1)OCO2 5.77%
CCc1cc(CN(C)C(=O)C(c2ccc(C)cc2)N(C)C)on1 (centres undefined) 0.632%
COC(=O)CNC(=O)C1CCc2nnc(CNC(=O)NC(C)C)n21 (centres undefined) 7.35%
O=C(c1ccc[nH]1)N1CCC(n2cc(-c3nc(C4CC4)no3)nn2)C1 (centres undefined) -1.54%
C[C@@]12CCC(=O)C[C@@H]1C[C@H](OC(=O)Nc1ccccc1)CC2 8.26%
COCCn1cnnc1CNc1cc(-c2ccncc2)nc2ccnn12 13.5%
COCCN1CC2(CCC1=O)CCN(C(=O)[C@@H]1C[C@@H](O)CN1)CC2 16.5%
Cn1nc2n(c1=O)CCC(NC(=O)c1n[nH]c3c1CC(C(C)(C)C)CC3)CC2 (centres undefined) 12.2%
O=C(NC1CCN(Cc2ccccc2)CC1)c1cccc2c1CCN2C(=O)c1ccccc1 2.69%
COc1cc(OC)cc(-c2onc(C)c2C(=O)NCCC(c2ccccc2)c2ccccc2)c1 1.93%
COCC1CCCN(C(=O)c2cc(Cn3c(C)nc4ccccc43)[nH]n2)C1 (centres undefined) 9.64%
O=C(C1CCc2nnc(-c3cccc(C(F)(F)F)c3)n21)N1CCCCC1 (centres undefined) -0.535%
CC(=O)N1CCN(Cc2ccccc2-c2cccnc2)CC1 16.5% [at 57.5 µM]
O=C(C1CCCC1)N1C[C@@H](COc2ccncc2)[C@H](c2ccccn2)C1 4.5%
COc1ccc(NC(=O)N2CCC3(CC2)SCC(=O)N3c2ccc(F)cc2)cc1 79.9%
CCCc1ccc(-c2nc(C3CCOC3)no2)cc1 (centres undefined) 0.845%
COc1ncccc1-c1cc(-c2c(C)noc2C)c2cncn2c1 15.3% [at 57.5 µM]
COC(=O)c1ccc(CNC(=O)CC2c3cccnc3C(=O)N2c2ccccc2)cc1 (centres undefined) 0.251% [at 16.1 µM]
Cc1nnc(-c2cc(-c3ccccc3Oc3ccccc3)ccn2)n1C 24% [at 57.5 µM]
COC(=O)N1CCC2(C1)N=C(c1ccncc1)C(=O)N2 (centres undefined) 0.0551% [at 57.5 µM]
CCN(CC)C(=O)CC[C@@H]1CNC(=O)[C@@H]2C[C@H](NC(=O)Nc3ccsc3)CN12 3.78% [at 57.5 µM]
O=C1CC(c2noc(-c3cccs3)n2)CN1C1CCCCC1 (centres undefined) -7.94%
C[C@@H](N)C(=O)N1CCC2(CC1)CC(=O)N(Cc1cc(F)cc(F)c1)C2 -4.75%

An excerpt from above in order of length of the SMILES, high to low.
Activity % (negative = inhibition), inactive:
COCCN1C[C@@H]2[C@H](c3ccccc31)[C@@H](CO)[C@@H](c1ccccc1)N2C(=O)COC(C)=O 4.01%
Cc1cc(C)cc(NC(=S)N[C@H]2CO[C@H]3[C@@H]2OC[C@H]3OC(=O)NC2CCCCC2)c1 15.5% [at 57.5 µM]
COC1=C(C(=O)OCc2ccccc2)N(c2c(C)cccc2C)[S+](=O)([O-])c2ccccc21 5.27%
COC[C@@H]1[C@H](NC(=O)c2csc(C)c2-c2ccccc2)[C@@H]2CCO[C@H]12 3.58%
Cc1nn(C)c(C)c1S(=O)(=O)N1CCC2(CCC(=O)N(Cc3ccccc3)CC2)CC1 -1.31%
COc1ccc(CN2C(=O)[C@@H]3C[C@@H](O)CN3C3(CN(C)C3)C2=O)cc1 11.4% [at 57.5 µM]
CN1CCCC2(CCN(S(=O)(=O)c3ccc4[nH]c(=O)[nH]c4c3)C2)C1=O (centres undefined) 1.81%
OC[C@@H]1O[C@H](CNC2CCOCC2)[C@H](N2CCCCC2)[C@@H]1O 1.3% [at 57.5 µM]
C[C@@]12CCC(=O)C[C@@H]1C[C@H](OC(=O)Nc1ccccc1)CC2 8.26%
CC(C)c1noc([C@@H]2C[C@@H](O)CN2Cc2cc3ccccc3o2)n1 12.8% [at 57.5 µM]
O=C(NC1CC(=O)N(Cc2cccc(F)c2)C1)c1ccccc1-n1cccn1 (centres undefined) 5.36%
Cn1cc(CN(Cc2c(C(=O)N3CCCC3)nc3sccn23)C2CC2)cn1 -9.07%
COc1ccccc1C(=O)N1CCCC(c2nnc3n2C(C(=O)O)CC3)C1 (centres undefined) 3.35%
CN1CC2(CCN(C(=O)CCc3nc(-c4ccco4)no3)C2)OC1=O (centres undefined) 7.83%
Cc1nn(CC(=O)N2CCCCCC2)c(=O)c2nc(C(C)C)sc12 12.4%
COC(=O)CNC(=O)C1CCc2nnc(CNC(=O)NC(C)C)n21 (centres undefined) 7.35%
CC(=O)NCc1nnc2n1C(C(=O)Nc1cccc(Cl)c1)CC2 (centres undefined) -5.04%
CCCNC(=O)N1CCC(Cc2ccc(CCNC(C)=O)cc2)CC1 1.09%
COC(=O)N1CCC2(C1)N=C(c1ccncc1)C(=O)N2 (centres undefined) 0.0551% [at 57.5 µM]
c1cc2c(cc1-c1n[nH]c(C3CCOCC3)n1)OCO2 5.77%
CC(=O)N1CCN(Cc2ccccc2-c2cccnc2)CC1 16.5% [at 57.5 µM]
CCCS(=O)(=O)N1CCc2nnc(C3CC3)n2CC1 7.88%
CCn1ncnc1C(C)NC1CCC2(CCNCC2)CC1 (centres undefined) 9.84%
Cc1cnccc1CN(C)Cc1cc2n(n1)CCNC2 2.08%
